PubChem BioAssay AID1259308 – NCATS – 2017
The deposit covers about 59,000 reagents; this is a part drawn at random. About 1,510 of all reagents (2.6%) were called active. 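Calls use total luciferase alone and ignore viability, so some active siRNAs may act by altering cell number.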 The numbers tell different reagents against one gene apart. Further read-outs or replicates are left out here.

Aim: 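Candidate targets for better recombinant protein yield in mammalian cells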 (primary screen)
Cells: human HEK293 embryonic kidney cells stably expressing firefly luciferase (HEK-CMV-Luc2-Hygro)
Reagent: single siRNA against human genes, 0.8 pmol siRNA per well
Time to read-out: 72 h
Read-out: 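Reporter luminescence and viable-cell signal on separate replicate plates, given as percent of non-targeting control and median/MAD z-scores, plus per-cell luciferase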
Scale: total luciferase, z-score and total luciferase, % of control: higher = more reporter protein produced; luciferase per cell, z-score: higher = more reporter output per viable cell
Active means: 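Active when the median/MAD z-score for overall luciferase is greater than 3; a gene was taken forward for validation with new siRNAs if at least two of its three siRNAs passed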
Calls: active = raised luciferase; inactive = no rise

The opening 5 entries, to show the layout:
Target gene | reagent no. | total luciferase, z-score | total luciferase, % of control | luciferase per cell, z-score | activity call
ARCN1 (archain 1 coat protein complex I subunit delta) | 1 | 1.76 | 117 | 2.48 | inactive
ARCN1 (archain 1 coat protein complex I subunit delta) | 2 | 2.99 | 141 | 4.04 | inactive
ARCN1 (archain 1 coat protein complex I subunit delta) | 3 | 2.34 | 128 | 2.4 | inactive
CST2 (cystatin SA) | 1 | -2.38 | 34.5 | -2.66 | inactive
CST2 (cystatin SA) | 2 | 0.511 | 92 | 0.157 | inactive

The listing, repeating the preview:
Target gene | reagent no. | total luciferase, z-score | total luciferase, % of control | luciferase per cell, z-score | activity call
ARCN1 (archain 1 coat protein complex I subunit delta) | 1 | 1.76 | 117 | 2.48 | inactive
ARCN1 (archain 1 coat protein complex I subunit delta) | 2 | 2.99 | 141 | 4.04 | inactive
ARCN1 (archain 1 coat protein complex I subunit delta) | 3 | 2.34 | 128 | 2.4 | inactive
CST2 (cystatin SA) | 1 | -2.38 | 34.5 | -2.66 | inactive
CST2 (cystatin SA) | 2 | 0.511 | 92 | 0.157 | inactive
CST2 (cystatin SA) | 3 | 0.285 | 87.6 | 0.304 | inactive
ECEL1 (endothelin converting enzyme like 1) | 1 | -0.0803 | 80.3 | 0.89 | inactive
ECEL1 (endothelin converting enzyme like 1) | 2 | -0.638 | 69.2 | -0.741 | inactive
ECEL1 (endothelin converting enzyme like 1) | 3 | 0.485 | 91.5 | 0.625 | inactive
EPG5 (ectopic P-granules 5 autophagy tethering factor) | 1 | 0.398 | 89.8 | 0.651 | inactive
EPG5 (ectopic P-granules 5 autophagy tethering factor) | 2 | 0.042 | 82.7 | -0.187 | inactive
EPG5 (ectopic P-granules 5 autophagy tethering factor) | 3 | 1.29 | 108 | 1.13 | inactive
MDC1 (mediator of DNA damage checkpoint 1) | 1 | -1.55 | 51.1 | -1.69 | inactive
MDC1 (mediator of DNA damage checkpoint 1) | 2 | -0.038 | 81.1 | -0.297 | inactive
MDC1 (mediator of DNA damage checkpoint 1) | 3 | 1.06 | 103 | 0.761 | inactive
TRMT1 (tRNA methyltransferase 1) | 1 | 0.292 | 87.7 | 0.802 | inactive
TRMT1 (tRNA methyltransferase 1) | 2 | 0.135 | 84.6 | 0.239 | inactive
TRMT1 (tRNA methyltransferase 1) | 3 | 0.45 | 90.8 | 0.368 | inactive
CAPNS2 (calpain small subunit 2) | 1 | -0.465 | 72.6 | -0.801 | inactive
CAPNS2 (calpain small subunit 2) | 2 | -0.0458 | 81 | -0.588 | inactive
CAPNS2 (calpain small subunit 2) | 3 | 0.163 | 85.1 | -0.455 | inactive
APOBR (apolipoprotein B receptor) | 1 | 3.31 | 148 | 2.05 | active
APOBR (apolipoprotein B receptor) | 2 | -1.25 | 57 | -1.5 | inactive
APOBR (apolipoprotein B receptor) | 3 | 0.633 | 94.5 | 1.2 | inactive
MECR (mitochondrial trans-2-enoyl-CoA reductase) | 1 | 0.516 | 92.1 | 0.368 | inactive
MECR (mitochondrial trans-2-enoyl-CoA reductase) | 2 | -0.542 | 71.1 | -0.688 | inactive
MECR (mitochondrial trans-2-enoyl-CoA reductase) | 3 | 1.06 | 103 | 1.03 | inactive
PEX11B (peroxisomal biogenesis factor 11 beta) | 1 | -0.15 | 78.9 | 0.0995 | inactive
PEX11B (peroxisomal biogenesis factor 11 beta) | 2 | 0.88 | 99.4 | 0.358 | inactive
PEX11B (peroxisomal biogenesis factor 11 beta) | 3 | 0.0511 | 82.9 | -0.463 | inactive
RHOXF1 (Rhox homeobox family member 1) | 1 | 1.11 | 104 | 2.9 | inactive
RHOXF1 (Rhox homeobox family member 1) | 2 | -0.577 | 70.4 | -1.16 | inactive
RHOXF1 (Rhox homeobox family member 1) | 3 | -0.73 | 67.4 | -0.802 | inactive
LRP3 (LDL receptor related protein 3) | 1 | -2.16 | 38.8 | -1.8 | inactive
LRP3 (LDL receptor related protein 3) | 2 | -0.311 | 75.7 | -1.04 | inactive
LRP3 (LDL receptor related protein 3) | 3 | 0.48 | 91.4 | 0.343 | inactive
MNX1-AS1 (MNX1 antisense RNA 1) | 1 | 1.18 | 105 | 0.944 | inactive
MNX1-AS1 (MNX1 antisense RNA 1) | 2 | -0.0817 | 80.3 | -0.544 | inactive
MNX1-AS1 (MNX1 antisense RNA 1) | 3 | 1.26 | 107 | 1.61 | inactive
C1orf159 (chromosome 1 open reading frame 159) | 1 | 0.381 | 89.5 | 0.379 | inactive
C1orf159 (chromosome 1 open reading frame 159) | 2 | 1.12 | 104 | 0.406 | inactive
C1orf159 (chromosome 1 open reading frame 159) | 3 | -0.31 | 75.7 | 0.629 | inactive
GPC3 (glypican 3) | 1 | 1.99 | 121 | 1.67 | inactive
GPC3 (glypican 3) | 2 | -1.49 | 52.3 | -1.32 | inactive
GPC3 (glypican 3) | 3 | 1.41 | 110 | 0.692 | inactive
DLG1 (discs large MAGUK scaffold protein 1) | 1 | 0.0874 | 83.6 | -0.456 | inactive
DLG1 (discs large MAGUK scaffold protein 1) | 2 | 0.451 | 90.9 | 0.335 | inactive
DLG1 (discs large MAGUK scaffold protein 1) | 3 | -0.397 | 74 | -0.813 | inactive
PPAT (phosphoribosyl pyrophosphate amidotransferase) | 1 | 1.44 | 111 | 2.05 | inactive
PPAT (phosphoribosyl pyrophosphate amidotransferase) | 2 | -0.905 | 63.9 | -0.0411 | inactive
PPAT (phosphoribosyl pyrophosphate amidotransferase) | 3 | -1.13 | 59.5 | 0.282 | inactive
RPL36 (ribosomal protein L36) | 1 | -2.73 | 27.6 | -2.85 | inactive
RPL36 (ribosomal protein L36) | 2 | -3.07 | 20.9 | -2.91 | inactive
RPL36 (ribosomal protein L36) | 3 | -2.32 | 35.8 | -1.66 | inactive
OR14C36 (olfactory receptor family 14 subfamily C member 36) | 1 | -0.385 | 74.2 | -0.939 | inactive
OR14C36 (olfactory receptor family 14 subfamily C member 36) | 2 | 0.538 | 92.6 | 0.694 | inactive
OR14C36 (olfactory receptor family 14 subfamily C member 36) | 3 | 4.24 | 166 | 2.68 | active
